Measured values from US12558430B2 (Eli Lilly and Company, priority 2020, dated 2026).
Non-standard residues stand in square brackets, D forms with d. Aib = CC(C)(N)C(=O)O

Experiment: general procedure: Fmoc solid-phase peptide synthesis; Polystyrene Rink Amide AM LL resin (Novabiochem, 0.33 meq/g, 100-200 mesh); diisopropylcarbodiimide and Oxyma; PyAOP/DIEA for fatty acid-linker
Settings: whole synthesis, analytical RP-HPLC, scale of the general procedure 0.13 mmol, TFA salt

Q: With “Ac-ASHLSTAVLGKLS[Aib]ELHKLEDYPRTDVGAESP-NH2” as the substance, how does the “final HPLC purity” value read?
A: >99.0%
